From patent US12392768B2, “Methods for determining blood gas or metabolic parameters” (RADIOMETER MEDICAL APS, priority 2019, dated 2025) come the findings set out here.

Where a name gives a salt, the structure may show the parent alone.

The nature of the data set: Anti-platelet drug interference test on ABL90 parameters (Example 5). The settings on record: for interference on assessed ABL parameters: at the tested concentrations in heparinized blood; for Fraction of maximum interference, Ca^2+ (mmol/L): max. allowed interference 0.02 mmol/L; for Fraction of maximum interference, Ca^2+ (mmol/L) / Fraction of maximum interference, tBil (μmol/L) / Fraction of maximum interference, Glu (mmol/L) / Fraction of maximum interference, Lac (mmol/L) / Fraction of maximum interference, K^+ (mmol/L) / Fraction of maximum interference, Na^+ (mmol/L) / Fraction of maximum interference, tHb (g/dL) / Fraction of maximum interference, COHb (%) / Fraction of maximum interference, MetHb (%): eptifibatide 20 μM, tirofiban 1 μM, iloprost 100 nM or 1 μM, MgSO4 12 mM; for Fraction of maximum interference, tBil (μmol/L): max. allowed interference 30 μmol/L; for Fraction of maximum interference, Glu (mmol/L) / Fraction of maximum interference, Lac (mmol/L): max. allowed interference 0.1 mmol/L; for Fraction of maximum interference, K^+ (mmol/L): max. allowed interference <0.1 mmol/L; for Fraction of maximum interference, Na^+ (mmol/L): max. allowed interference <1 mmol/L; for Fraction of maximum interference, tHb (g/dL): max. allowed interference <0.5 g/dL; for Fraction of maximum interference, COHb (%) / Fraction of maximum interference, MetHb (%): max. allowed interference <1%.

For `O=S(=O)([O-])[O-].[Mg+2]` [MgSO4], the “interference on assessed ABL parameters” value is “shows interference”; the “Fraction of maximum interference, Ca^2+ (mmol/L)” value (“Fraction … Ca^2+ (mmol/L)” for short) was 2.7; the “Fraction of maximum interference, tBil (μmol/L)” value (“Fraction … (μmol/L)” below) stood at 0.140; the “Fraction of maximum interference, Glu (mmol/L)” value (from here on “Fraction … Glu (mmol/L)”) is 0.2. Moreover, the “Fraction of maximum interference, Lac (mmol/L)” value (from here on “Fraction … Lac (mmol/L)”) was determined as 4.6; the “Fraction of maximum interference, K^+ (mmol/L)” value (from here on “Fraction … K^+ (mmol/L)”) was 2.0; the “Fraction of maximum interference, Na^+ (mmol/L)” value (from here on “Fraction … Na^+ (mmol/L)”) is given as 5.6; the “Fraction of maximum interference, tHb (g/dL)” value (shortened to “Fraction … (g/dL)”) is 0.08. In addition, the “Fraction of maximum interference, COHb (%)” value (“Fraction … COHb (%)” for short) was 0.04 and the “Fraction of maximum interference, MetHb (%)” value (from here on “Fraction … MetHb (%)”) was 0.04.

With `CC#CCC(C)[C@H](O)/C=C/[C@@H]1[C@H]2C/C(=C/CCCC(=O)O)C[C@H]2C[C@H]1O` (stereo partly drawn) [Iloprost, iloprost], the “interference on assessed ABL parameters” value is “no interference”; the “Fraction … Ca^2+ (mmol/L)” value was 0.1; the “Fraction … (μmol/L)” value is 0.013; the “Fraction … Glu (mmol/L)” value is reported as 0.86. Also, the “Fraction … Lac (mmol/L)” value was 0.62; the “Fraction … K^+ (mmol/L)” value is given as 0.18; the “Fraction … Na^+ (mmol/L)” value is 0.14; the “Fraction … (g/dL)” value is reported as 0.12. The “Fraction … COHb (%)” value stood at 0.08 and the “Fraction … MetHb (%)” value came to 0.04.

Regarding eptifibatide acetate, the “Fraction … Ca^2+ (mmol/L)” value worked out at 0.2; the “Fraction … (μmol/L)” value worked out at 0.013; the “Fraction … Glu (mmol/L)” value came to 0; the “Fraction … Lac (mmol/L)” value was found to be 0.6. For the same compound, the “Fraction … K^+ (mmol/L)” value is 0; the “Fraction … Na^+ (mmol/L)” value worked out at 0.4; the “Fraction … (g/dL)” value stood at 0.04; the “Fraction … COHb (%)” value was 0.02. In addition, the “Fraction … MetHb (%)” value amounted to 0.08.

`CCCCS(=O)(=O)N[C@@H](Cc1ccc(OCCCCC2CCNCC2)cc1)C(=O)O` [Tirofiban, tirofiban hydrochloride monohydrate]: the “interference on assessed ABL parameters” value is on record as “no interference”; the “Fraction … Ca^2+ (mmol/L)” value amounted to 0.1; the “Fraction … (μmol/L)” value was 0.000; the “Fraction … Glu (mmol/L)” value is on record as 0.8. Also, the “Fraction … Lac (mmol/L)” value was determined as 0; the “Fraction … K^+ (mmol/L)” value was 0; the “Fraction … Na^+ (mmol/L)” value was found to be 0; the “Fraction … (g/dL)” value amounted to 0.12. For the same compound, the “Fraction … COHb (%)” value worked out at 0.06 and the “Fraction … MetHb (%)” value was determined as 0.04.
